In one experiment the target is T1, His-tagged USP15 (UniProt Q9Y4E8).
T1 sequence: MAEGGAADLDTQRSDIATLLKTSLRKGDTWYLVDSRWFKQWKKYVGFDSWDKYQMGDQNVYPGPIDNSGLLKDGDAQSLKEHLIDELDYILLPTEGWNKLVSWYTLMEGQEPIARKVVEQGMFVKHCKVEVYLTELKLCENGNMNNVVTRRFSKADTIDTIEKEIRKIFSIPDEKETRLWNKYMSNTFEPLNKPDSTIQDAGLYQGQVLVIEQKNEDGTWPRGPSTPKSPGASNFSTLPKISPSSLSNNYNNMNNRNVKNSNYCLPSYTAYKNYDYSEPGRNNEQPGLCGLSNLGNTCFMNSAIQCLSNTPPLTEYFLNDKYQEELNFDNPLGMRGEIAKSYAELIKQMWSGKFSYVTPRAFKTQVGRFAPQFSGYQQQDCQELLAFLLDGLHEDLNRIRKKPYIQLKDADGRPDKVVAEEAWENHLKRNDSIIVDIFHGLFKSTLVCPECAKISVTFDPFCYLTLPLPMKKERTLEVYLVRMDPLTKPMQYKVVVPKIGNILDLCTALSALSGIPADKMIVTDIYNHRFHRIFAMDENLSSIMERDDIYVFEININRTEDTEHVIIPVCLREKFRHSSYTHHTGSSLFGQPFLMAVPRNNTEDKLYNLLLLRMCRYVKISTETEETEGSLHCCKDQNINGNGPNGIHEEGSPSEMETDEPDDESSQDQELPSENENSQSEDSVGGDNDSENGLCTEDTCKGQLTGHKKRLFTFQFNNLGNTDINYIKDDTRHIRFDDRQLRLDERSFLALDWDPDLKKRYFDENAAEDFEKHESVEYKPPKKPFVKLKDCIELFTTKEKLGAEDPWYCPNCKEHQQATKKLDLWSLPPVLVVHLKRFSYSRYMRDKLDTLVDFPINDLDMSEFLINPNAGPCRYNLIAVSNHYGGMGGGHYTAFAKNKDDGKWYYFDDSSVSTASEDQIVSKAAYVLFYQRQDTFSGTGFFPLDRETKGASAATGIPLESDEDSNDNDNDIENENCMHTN
The experiment can be described thus: co-IP; His-tagged USP15 and Myc-tagged YAP1 cotransfected into HEK293T cells, harvested 48 h post-transfection; immunoprecipitation with anti-His antibody, western blot.

Amino acid sequences for entries named in this document (tags omitted).
UniProt P46937: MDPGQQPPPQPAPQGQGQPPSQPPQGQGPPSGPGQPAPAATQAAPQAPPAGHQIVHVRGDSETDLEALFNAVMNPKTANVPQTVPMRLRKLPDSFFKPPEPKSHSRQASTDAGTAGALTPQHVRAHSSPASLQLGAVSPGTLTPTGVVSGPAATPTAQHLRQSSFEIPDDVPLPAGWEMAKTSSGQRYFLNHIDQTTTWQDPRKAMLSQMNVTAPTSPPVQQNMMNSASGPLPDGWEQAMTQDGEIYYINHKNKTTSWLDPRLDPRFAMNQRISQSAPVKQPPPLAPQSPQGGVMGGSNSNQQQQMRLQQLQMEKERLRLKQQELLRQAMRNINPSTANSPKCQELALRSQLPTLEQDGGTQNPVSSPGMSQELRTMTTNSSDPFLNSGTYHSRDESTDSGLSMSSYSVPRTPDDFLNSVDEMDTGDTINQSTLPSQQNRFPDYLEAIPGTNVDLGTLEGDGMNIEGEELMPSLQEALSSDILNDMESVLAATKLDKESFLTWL

Experiment [1] has as its target T2, Ubiquitin-specific protease 15 (human (endogenous in hPASMCs)) (UniProt Q9Y4E8).
T2 sequence: T1 sequence
The experiment can be described thus: co-IP; endogenous proteins in lysates of control and hypoxic hPASMCs; anti-USP15, anti-YAP1 and anti-TAZ immunoprecipitations; Pierce Co-IP kit, lysate with antibody-conjugated resin at 4 °C overnight, western blot.

No constants are given. Whether binding was seen depends on the method and setting. Binding seen in cells or lysates may run through a third protein. Some entries that bind do so weakly or less than the wild type. For some assays here: Where a sequence is shown, tags or fusion partners need not be part of it.

In the case of “Myc-tagged YAP1 (from UniProt P46937 1-504)”, in the experiment with His-tagged USP15, the binding result was “binds”.
Consider “Yes-associated protein (YAP)-1 (from UniProt P46937 1-504)”, for which, in experiment [1], the binding entry was “binds”.

For the origin of these results see PMC9898287.
